Experiment [1] concerns the target T1, hnRNP F (human (endogenous in U87 and U251)) (UniProt P52597).
T1 sequence: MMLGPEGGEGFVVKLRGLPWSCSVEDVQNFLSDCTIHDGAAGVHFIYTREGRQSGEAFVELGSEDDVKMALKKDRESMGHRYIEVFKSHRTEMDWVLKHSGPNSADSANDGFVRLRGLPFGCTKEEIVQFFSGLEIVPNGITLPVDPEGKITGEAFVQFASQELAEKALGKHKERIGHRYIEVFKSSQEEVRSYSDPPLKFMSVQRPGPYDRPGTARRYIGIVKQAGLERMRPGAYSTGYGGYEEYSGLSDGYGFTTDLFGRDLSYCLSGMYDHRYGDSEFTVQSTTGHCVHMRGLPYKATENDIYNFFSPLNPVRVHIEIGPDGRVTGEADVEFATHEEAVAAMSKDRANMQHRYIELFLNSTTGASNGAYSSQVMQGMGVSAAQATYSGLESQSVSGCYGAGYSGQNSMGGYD
Put plainly: co-IP; total extracts (TE) of U87 or U251 cells, endogenous proteins, in the presence of RNase and DNase; immunoprecipitation with hnRNP H/F or DHX36 antibody, western blot. (A western blot detects proteins with antibodies after separation by electrophoresis.)

Protein sequences, listed by entry. Tags and fused reporters are not part of them.
UniProt O00571: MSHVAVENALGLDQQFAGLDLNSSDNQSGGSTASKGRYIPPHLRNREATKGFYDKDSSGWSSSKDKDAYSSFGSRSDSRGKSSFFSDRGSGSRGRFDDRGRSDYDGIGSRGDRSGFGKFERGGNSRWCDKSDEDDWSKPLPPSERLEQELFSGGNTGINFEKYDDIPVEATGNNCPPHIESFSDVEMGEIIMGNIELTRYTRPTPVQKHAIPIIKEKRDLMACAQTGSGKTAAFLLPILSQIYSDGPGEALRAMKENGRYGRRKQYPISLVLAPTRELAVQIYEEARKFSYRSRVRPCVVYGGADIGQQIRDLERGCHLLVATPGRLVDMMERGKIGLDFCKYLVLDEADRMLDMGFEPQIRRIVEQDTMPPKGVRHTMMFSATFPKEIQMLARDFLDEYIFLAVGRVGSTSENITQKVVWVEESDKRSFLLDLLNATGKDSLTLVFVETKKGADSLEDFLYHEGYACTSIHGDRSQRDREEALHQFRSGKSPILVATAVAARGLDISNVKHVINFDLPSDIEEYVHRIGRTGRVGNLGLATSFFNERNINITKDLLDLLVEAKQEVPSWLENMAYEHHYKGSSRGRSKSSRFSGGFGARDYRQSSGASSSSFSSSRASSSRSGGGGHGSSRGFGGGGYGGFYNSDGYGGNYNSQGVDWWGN

The target in experiment [2] is T1, hnRNP F (human (endogenous in U87 and U251)). Put plainly: co-IP; cytoplasmic extracts (CE; cytosolic + microsomal fractions) of U87 or U251 cells, endogenous proteins, digested with Benzonase and DNase I; hnRNP H/F or DHX36 antibody on beads, 1 mg extract overnight at 4 °C, western blot.

Results are given in words; binding and its absence hold for the method and conditions named. Binding seen in cells or lysates may run through a third protein. Some entries that bind do so weakly or less than the wild type.

Regarding “DDX3X (from UniProt O00571 1-662) (enzyme)”, the binding result is reported as “binds” in experiment [1] and “binds weakly” in experiment [2].

The values are drawn from publication PMC7253433.
